Measurements published in the supplement of paper PMC11098740.
± gives the standard deviation of the averaged measurements. This is one part of the list. Many values rest on one well or one pass, so single values are uncertain.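 Pooled together, 41 HAP1 clones carry intronic fluorescent tags on 61 cancer-associated proteins, and each clone is recognized by its imaging pattern. Measurements are benchmarked against DMSO-treated control wells. dBET6, a BRD4 degrader, served as the positive control.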

By UniProt entry, the sequences of proteins in these tests, tags left out.
UniProt O14980, whole entry: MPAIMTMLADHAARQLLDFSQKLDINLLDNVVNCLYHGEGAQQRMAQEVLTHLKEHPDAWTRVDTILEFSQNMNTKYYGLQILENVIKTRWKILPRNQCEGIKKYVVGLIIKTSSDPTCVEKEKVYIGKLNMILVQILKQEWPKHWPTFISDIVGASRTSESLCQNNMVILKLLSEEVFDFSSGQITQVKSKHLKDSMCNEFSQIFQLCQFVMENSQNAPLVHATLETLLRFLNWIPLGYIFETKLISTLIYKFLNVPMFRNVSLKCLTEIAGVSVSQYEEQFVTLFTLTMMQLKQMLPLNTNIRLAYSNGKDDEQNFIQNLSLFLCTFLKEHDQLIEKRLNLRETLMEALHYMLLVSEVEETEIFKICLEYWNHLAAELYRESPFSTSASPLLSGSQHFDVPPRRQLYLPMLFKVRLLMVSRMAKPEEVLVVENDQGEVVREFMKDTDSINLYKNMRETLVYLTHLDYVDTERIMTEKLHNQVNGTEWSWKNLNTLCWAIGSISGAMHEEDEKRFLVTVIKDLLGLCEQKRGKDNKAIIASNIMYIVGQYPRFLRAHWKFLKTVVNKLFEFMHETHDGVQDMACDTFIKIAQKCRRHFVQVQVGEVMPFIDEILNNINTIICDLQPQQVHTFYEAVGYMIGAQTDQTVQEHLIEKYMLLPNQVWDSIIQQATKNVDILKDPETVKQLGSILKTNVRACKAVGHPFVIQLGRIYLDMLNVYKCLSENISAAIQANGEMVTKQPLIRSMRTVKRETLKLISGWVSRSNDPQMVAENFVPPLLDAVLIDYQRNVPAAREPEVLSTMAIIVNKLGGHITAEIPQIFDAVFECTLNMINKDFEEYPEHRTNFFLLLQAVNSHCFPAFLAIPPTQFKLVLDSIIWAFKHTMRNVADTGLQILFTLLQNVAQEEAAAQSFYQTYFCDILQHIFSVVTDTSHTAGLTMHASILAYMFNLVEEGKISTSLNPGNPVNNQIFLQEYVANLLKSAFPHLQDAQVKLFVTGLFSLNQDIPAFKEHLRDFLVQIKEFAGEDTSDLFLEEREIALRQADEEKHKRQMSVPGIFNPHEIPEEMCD

What follows are compounds tested against XPO1 (intron 15 mScarlet tag, HAP1) (UniProt O14980) (assay: XPO1 fluorescence intensity change vs DMSO (log2 fold change); higher = more XPO1 protein). Details: 6 h.

SMILES	XPO1 fluorescence intensity change (log2)
CC(=O)NCCCS(=O)(=O)O [Acamprosate] (22.0736 µM)	0.137
CCOC(=O)C1=C[C@@H](OC(CC)CC)[C@H](NC(C)=O)[C@@H](N)C1 [Oseltamivir] (9.9999 µM)	0.198
O=C1[C@H](CC[C@H](O)c2ccc(F)cc2)[C@@H](c2ccc(O)cc2)N1c1ccc(F)cc1 [Ezetimibe] (10.00060281 µM)	-0.112
C=CC[C@@H]1/C=C(\C)C[C@H](C)C[C@H](OC)[C@H]2O[C@@](O)(C(=O)C(=O)N3CCCC[C@H]3C(=O)O[C@H](/C(C)=C/[C@@H]3CC[C@@H](O)[C@H](OC)C3)[C@H](C)[C@@H](O)CC1=O)[C@H](C)C[C@@H]2OC [Tacrolimus] (20 µM)	-0.0791
O=C1CCC(N2C(=O)c3ccccc3C2=O)C(=O)N1 (stereo unspecified) [Thalidomide] (9.40275 µM)	-0.129
C/C(O)=C(\C#N)C(=O)Nc1ccc(C(F)(F)F)cc1 [Teriflunomide (A77 1726)] (10 µM)	-0.182
O.O.O.O.O=C([O-])CC(O)(CC(=O)[O-])C(=O)[O-].[Li+].[Li+].[Li+] [Lithium Citrate] (10 µM)	0.0886
CCCCC1C(=O)N(c2ccccc2)N(c2ccc(O)cc2)C1=O (stereo unspecified) [Oxyphenbutazone] (10 µM)	-0.0189
CN1CCC(=C2c3ccccc3CCc3cccnc32)CC1 [Azatadine] (17.993 µM)	0.0365
C#CCC(Cc1cnc2nc(N)nc(N)c2n1)c1ccc(C(=O)N[C@@H](CCC(=O)O)C(=O)O)cc1 (stereo partly specified) [Pralatrexate] (0.0871 µM)	-0.018 ± 0.066
C#C[C@]1(O)CC[C@H]2[C@@H]3CCc4cc(O)ccc4[C@H]3CC[C@@]21C [Ethinyl Estradiol] (9.99913 µM)	0.0595
C[C@@H](NCCCc1cccc(C(F)(F)F)c1)c1cccc2ccccc12 [Cinacalcet] (10 µM)	0.126
CC(C)NC(=N)NC(=N)Nc1ccc(Cl)cc1 [Proguanil] (9.99926 µM)	0.0942
CCCCc1oc2ccc(NS(C)(=O)=O)cc2c1C(=O)c1ccc(OCCCN(CCCC)CCCC)cc1 [Dronedarone] (10 µM)	0.166
O=C(Nc1ccc([N+](=O)[O-])cc1Cl)c1cc(Cl)ccc1O [Niclosamide] (9.99966 µM)	0.222
CCCCC(F)(F)[C@@]1(O)CC[C@H]2[C@@H](CC(=O)[C@@H]2CCCCCCC(=O)O)O1 [Lubiprostone] (10 µM)	0.076
CC(C)C[C@H](NC(=O)[C@H](CCc1ccccc1)NC(=O)CN1CCOCC1)C(=O)N[C@@H](Cc1ccccc1)C(=O)N[C@@H](CC(C)C)C(=O)[C@@]1(C)CO1 [Carfilzomib] (0.00117 µM)	-0.193 ± 0.3
CNCCCC12CCC(c3ccccc31)c1ccccc12 [Maprotiline] (11.3144 µM)	0.0329
COc1c(C)c2c(c(O)c1C/C=C(\C)CCC(=O)O)C(=O)OC2 [Mycophenolic Acid] (10 µM)	0.132
CCN(CCO)CCCC(C)Nc1ccnc2cc(Cl)ccc12 (stereo unspecified) [Hydroxychloroquine] (9.99954 µM)	-0.0721
CCC1(c2ccccc2)NC(=O)N(C)C1=O (stereo unspecified) [Mephenytoin] (10 µM)	0.0972
CNS(=O)(=O)Cc1ccc2[nH]cc(CCN(C)C)c2c1 [Sumatriptan] (10.0004 µM)	-0.122
OC(CCCN1CCCCC1)(c1ccccc1)c1ccccc1 [Diphenidol] (9.99988 µM)	0.0583
COc1cc2/c(=N/c3ccc(Br)cc3F)nc[nH]c2cc1OCC1CCN(C)CC1 [Vandetanib] (20 µM)	0.198
O=NN(CCCl)C(=O)NCCCl [Carmustine] (20 µM)	-0.0281
C[C@H]1[C@@H](O)O[C@@H]2O[C@@]3(C)CC[C@H]4[C@H](C)CC[C@@H]1[C@@]24OO3 [Dihydroartemisinin] (10 µM)	0.0122

Look-ups from the results shown:
Value of COc1c(C)c2c(c(O)c1C/C=C(\C)CCC(=O)O)C(=O)OC2 [Mycophenolic Acid] (10 µM) under XPO1 fluorescence intensity change (log2): 0.132
Value of O=C(Nc1ccc([N+](=O)[O-])cc1Cl)c1cc(Cl)ccc1O [Niclosamide] (9.99966 µM) under XPO1 fluorescence intensity change (log2): 0.222
